This passage reports binding results from paper PMC6203814.

Amino acid sequences for entries named in this document (tags omitted). Residues count along the entry.
UniProt Q4ZJM9, residues 16-238: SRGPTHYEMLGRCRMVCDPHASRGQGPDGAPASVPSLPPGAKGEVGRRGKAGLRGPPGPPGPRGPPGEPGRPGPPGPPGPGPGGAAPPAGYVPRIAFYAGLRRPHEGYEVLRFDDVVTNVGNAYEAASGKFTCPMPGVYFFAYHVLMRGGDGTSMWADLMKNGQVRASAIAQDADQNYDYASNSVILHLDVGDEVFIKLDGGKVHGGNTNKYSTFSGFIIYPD
UniProt P32121: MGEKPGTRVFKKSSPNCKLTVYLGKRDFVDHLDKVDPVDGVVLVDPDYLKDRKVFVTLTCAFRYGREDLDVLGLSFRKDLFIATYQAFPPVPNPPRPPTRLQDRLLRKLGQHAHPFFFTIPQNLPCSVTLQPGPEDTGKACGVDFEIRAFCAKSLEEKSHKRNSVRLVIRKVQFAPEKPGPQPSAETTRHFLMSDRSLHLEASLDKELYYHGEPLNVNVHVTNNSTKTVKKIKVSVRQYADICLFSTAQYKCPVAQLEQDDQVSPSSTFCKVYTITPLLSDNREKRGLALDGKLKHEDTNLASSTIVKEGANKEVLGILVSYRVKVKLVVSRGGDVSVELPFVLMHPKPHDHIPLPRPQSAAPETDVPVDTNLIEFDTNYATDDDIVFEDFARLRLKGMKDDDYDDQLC

These are yes or no findings as the source states them, for the method shown. Binding seen in cells or lysates may run through a third protein. Some results given as binding are weak or reduced against the parent protein; the word gives no strength. Where a sequence is shown, tags or fusion partners need not be part of it.

In one assay the target is HA-C1qL4^WT (UniProt Q4ZJM9). The assay can be described thus: co-IP; anti-HA immunoprecipitation of HA-C1qL4 (WT or GW), blot for V5-tagged soluble BAI3 extracellular domain or its fragments.
The target in assay [1] is Myc-β-Arrestin2 (UniProt P32121). In words: co-IP; immunoprecipitation of Myc-β-Arrestin2 from transfected cells, blot for Flag-BAI3^WT or Flag-BAI3^∆N; no Stabilin-2 co-expressed.
Assay [2] has the same target. The assay can be described thus: co-IP; Myc-β-Arrestin2 and Flag-BAI3 with increasing amounts of co-expressed V5-Stabilin-2.

B1: V5-BAI3^CUB (domain or fragment, UniProt O60242 30-159)
chain: CSTLVKGVIYGSYSVSEMFPKNFTNCTWTLENPDPTKYSIYLKFSKKDLSCSNFSLLAYQFDHFSHEKIKDLLRKNHSIMQLCNSKNAFVFLQYDKNFIQIRRVFPTNFPGLQKKGEEDQKSFFEFLVLN
As to B1, the binding entry in the assay with HA-C1qL4^WT was “binds”.

B2: Full length human Flag-BAI3-mVenus (receptor, UniProt O60242 25-1522)
chain: AQDFWCSTLVKGVIYGSYSVSEMFPKNFTNCTWTLENPDPTKYSIYLKFSKKDLSCSNFSLLAYQFDHFSHEKIKDLLRKNHSIMQLCNSKNAFVFLQYDKNFIQIRRVFPTNFPGLQKKGEEDQKSFFEFLVLNKVSPSQFGCHVLCTWLESCLKSENGRTESCGIMYTKCTCPQHLGEWGIDDQSLILLNNVVLPLNEQTEGCLTQELQTTQVCNLTREAKRPPKEEFGMMGDHTIKSQRPRSVHEKRVPQEQADAAKFMAQTGESGVEEWSQWSTCSVTCGQGSQVRTRTCVSPYGTHCSGPLRESRVCNNTALCPVHGVWEEWSPWSLCSFTCGRGQRTRTRSCTPPQYGGRPCEGPETHHKPCNIALCPVDGQWQEWSSWSQCSVTCSNGTQQRSRQCTAAAHGGSECRGPWAESRECYNPECTANGQWNQWGHWSGCSKSCDGGWERRIRTCQGAVITGQQCEGTGEEVRRCNEQRCPAPYEICPEDYLMSMVWKRTPAGDLAFNQCPLNATGTTSRRCSLSLHGVAFWEQPSFARCISNEYRHLQHSIKEHLAKGQRMLAGDGMSQVTKTLLDLTQRKNFYAGDLLMSVEILRNVTDTFKRASYIPASDGVQNFFQIVSNLLDEENKEKWEDAQQIYPGSIELMQVIEDFIHIVGMGMMDFQNSYLMTGNVVASIQKLPAASVLTDINFPMKGRKGMVDWARNSEDRVVIPKSIFTPVSSKELDESSVFVLGAVLYKNLDLILPTLRNYTVINSKIIVVTIRPEPKTTDSFLEIELAHLANGTLNPYCVLWDDSKTNESLGTWSTQGCKTVLTDASHTKCLCDRLSTFAILAQQPREIIMESSGTPSVTLIVGSGLSCLALITLAVVYAALWRYIRSERSIILINFCLSIISSNILILVGQTQTHNKSICTTTTAFLHFFFLASFCWVLTEAWQSYMAVTGKIRTRLIRKRFLCLGWGLPALVVATSVGFTRTKGYGTDHYCWLSLEGGLLYAFVGPAAAVVLVNMVIGILVFNKLVSRDGILDKKLKHRAGQMSEPHSGLTLKCAKCGVVSTTALSATTASNAMASLWSSCVVLPLLALTWMSAVLAMTDKRSILFQILFAVFDSLQGFVIVMVHCILRREVQDAFRCRLRNCQDPINADSSSSFPNGHAQIMTDFEKDVDIACRSVLHKDIGPCRAATITGTLSRISLNDDEEEKGTNPEGLSYSTLPGNVISKVIIQQPTGLHMPMSMNELSNPCLKKENSELRRTVYLCTDDNLRGADMDIVHPQERMMESDYIVMPRSSVNNQPSMKEESKMNIGMETLPHERLLHYKVNPEFNMNPPVMDQFNMNLEQHLAPQEHMQNLPFEPRTAVKNFMASELDDNAGLSRSETGSTISMSSLERRKSRYSDLDFEKVMHTRKRHMELFQELNQKFQTLDRFRDIPNTSSMENPAPNKNPWDTFKNPSEYPHYTTINVLDTEAKDALELRPAEWEKCLNLPLDVQEGDFQTEV
In the case of B2, the binding result was “no binding (condition: without co-expressed Stabilin-2)” in the assay with Myc-β-Arrestin2 [1] and “binds” with Myc-β-Arrestin2 [2].
